# Data published in patent publication US9598389B2, “Dihydrobenzofuran derivatives as insecticidal compounds” (SYNGENTA PARTICIPATIONS AG, priority 2013, dated 2017).
# Some entries share one result that the patent states for a list of compounds. At least one structure is not confirmed: it was looked up by name or label, or the drawing left a doubt.
# How the values were obtained:
# Type in all cases: in vivo
# [1] = tested on: Spodoptera Littoralis (Egyptian Cotton Leaf Worm); experiment: Spodoptera littoralis cotton leaf disc spray test; conditions: application rate of 200 ppm; L1 larvae; 3 days after infestation
# Description: Spodoptera Littoralis (Egyptian Cotton Leaf Worm)
# Cotton leaf discs were placed on agar in 24-well microtiter plates and sprayed with aqueous test solutions prepared from 10,000 ppm DMSO stock solutions. After drying the leaf discs were infested with five L1 larvae. The samples were assessed for mortality, anti-feedant effect, and growth inhibition in comparison to untreated samples 3 days after infestation. Control of Spodoptera littoralis by a test sample is when at least one of mortality, anti-feedant effect, and growth inhibition is higher than the untreated sample.
# [2] = tested on: Heliothis virescens (Tobacco Budworm); experiment: Heliothis virescens egg/larval test on artificial diet; conditions: application rate of 200 ppm; eggs 0-24 h old; 5 days after infestation
# Description: Heliothis virescens (Tobacco Budworm):
# Eggs (0-24 h old) were placed in 24-well microtiter plates on artificial diet and treated with aqueous test solutions prepared from 10,000 ppm DMSO stock solutions by pipetting. The samples were assessed for egg and larval mortality 5 days after infestation.
# [3] = tested on: Plutella xylostella (Diamond Back Moth); experiment: Plutella xylostella L2 larvae test on artificial diet; conditions: application rate of 200 ppm, 5 days after infestation
# Description: Plutella xylostella (Diamond Back Moth):
# 24-well microtiter plates with artificial diet were treated with aqueous test solutions prepared from 10,000 ppm DMSO stock solutions by pipetting. After drying, the plates were infested with L2 larvae (10 to 15 per well). The samples were assessed for mortality and growth inhibition in comparison to untreated samples 5 days after infestation.
Compound,"control (at least one of mortality, anti-feedant effect, growth inhibition) [1]",egg or larval mortality [2] [%],effect in at least one of the two categories (mortality or growth inhibition) [3] [%]
CC(C)(C)C(=O)Nc1cccc(-c2ccc3c(c2)CC(c2cccc(C(F)(F)F)c2)(C(F)(F)F)O3)c1 (stereo not shown) [Compound 106],at least 80%,≥ 80,≥ 80
CCC(=O)Nc1cc(-c2cc3c(cc2Cl)OC(c2cc(Cl)cc(Cl)c2)(C(F)(F)F)C3)ncn1 (stereo not shown) [Compound 201],,,≥ 80
CCC(=O)Nc1ccc(C#N)c(-c2ccc3c(c2)CC(c2cc(Cl)cc(Cl)c2)(C(F)(F)F)O3)c1 (racemic) [Compound 84],at least 80%,≥ 80,≥ 80
O=C(CC(F)(F)F)Nc1cccc(-c2ccc3c(c2)CC(c2cc(Cl)cc(Cl)c2)(C(F)(F)F)O3)c1F (racemic) [Compound 83],at least 80%,≥ 80,≥ 80
CCC(=O)Nc1cc(-c2ccc3c(c2)CC(c2cc(Cl)cc(Cl)c2)(C(F)(F)F)O3)ccc1OC (stereo not shown) [Compound 244],at least 80%,≥ 80,
O=C(C=CCl)Nc1cccc(-c2ccc3c(c2)CC(c2cc(Cl)cc(Cl)c2)(C(F)(F)F)O3)c1 (stereo not shown) [Compound 104],at least 80%,,≥ 80
O=C(Nc1cccc(-c2ccc3c(c2)CC(c2cccc(C(F)(F)F)c2)(C(F)(F)F)O3)c1)c1ccco1 (stereo not shown) [Compound 105],at least 80%,≥ 80,≥ 80
O=C(Nc1cccc(-c2ccc3c(c2)CC(c2cc(Cl)cc(Cl)c2)(C(F)(F)F)O3)c1)c1cn[nH]c1 (racemic) [Compound 19],,≥ 80,≥ 80
O=C(Nc1cccc(-c2ccc3c(c2)CC(c2cccc(C(F)(F)F)c2)(C(F)(F)F)O3)c1)c1ccncc1 (stereo not shown) [Compound 63],at least 80%,≥ 80,≥ 80
O=C(Nc1cccc(-c2cnc3c(c2)CC(c2cc(Cl)cc(Cl)c2)(C(F)(F)F)O3)c1)C1CC1 (racemic) [Compound 77],at least 80%,,≥ 80
CCC(=O)Nc1cccc(-c2ccc3c(c2)CC(c2cc(Cl)cc(Cl)c2)(C(F)(F)F)O3)c1C#N (racemic) [Compound 11],,≥ 80,
O=C(Cc1ccccc1)Nc1cccc(-c2ccc3c(c2)CC(c2cccc(C(F)(F)F)c2)(C(F)(F)F)O3)c1 (racemic) [Compound 21],,≥ 80,
Cc1cc2c(cc1-c1nccc(NC(=O)C3CC3)n1)CC(c1cc(Cl)cc(Cl)c1)(C(F)(F)F)O2 (stereo not shown) [Compound 129],at least 80%,,≥ 80
CCC(=O)Nc1cccc(-c2ccc3c(c2)CC(c2cc(Cl)cc(Cl)c2)(C(F)(F)F)O3)c1F (stereo not shown) [Compound 142],at least 80%,≥ 80,≥ 80
CCC(=O)Nc1nccc(-c2cc3c(cc2Cl)OC(c2cc(Cl)cc(Cl)c2)(C(F)(F)F)C3)n1 (stereo not shown) [Compound 203],at least 80%,,≥ 80
CCC(C)C(=O)Nc1cccc(-c2ccc3c(c2)CC(c2cccc(C(F)(F)F)c2)(C(F)(F)F)O3)c1 (stereo not shown) [Compound 163],at least 80%,≥ 80,≥ 80
N#Cc1ccc(NC(=O)C2CC2)cc1-c1ccc2c(c1)CC(c1cc(Cl)cc(Cl)c1)(C(F)(F)F)O2 (racemic) [Compound 5],,≥ 80,
O=C(Nc1cccc(-c2ccc3c(c2)CC(c2cc(Cl)cc(Cl)c2)(C(F)(F)F)O3)c1)c1cnccn1 (stereo not shown) [Compound 53],at least 80%,≥ 80,≥ 80
O=C(Nc1cccc(-c2ccc3c(c2)CC(c2cccc(C(F)(F)F)c2)(C(F)(F)F)O3)c1)c1cccnc1 (stereo not shown) [Compound 116],at least 80%,≥ 80,≥ 80
Cc1c(NC(=O)C2CC2)cccc1-c1ccc2c(c1)CC(c1cc(Cl)cc(Cl)c1)(C(F)(F)F)O2 (stereo not shown) [Compound 34],,,≥ 80
O=C(Nc1cccc(-c2ccc3c(c2)CC(c2cccc(C(F)(F)F)c2)(C(F)(F)F)O3)c1)c1ccccn1 (stereo not shown) [Compound 28],,≥ 80,

Compound,"control (at least one of mortality, anti-feedant effect, growth inhibition) [1]",egg or larval mortality [2] [%],effect in at least one of the two categories (mortality or growth inhibition) [3] [%]
O=C(Nc1cccc(-c2ccc3c(c2)CC(c2cccc(C(F)(F)F)c2)(C(F)(F)F)O3)c1)c1c(F)cccc1F (stereo not shown) [Compound 138],at least 80%,≥ 80,
O=C(Nc1cc(-c2cc3c(cc2Cl)OC(c2cc(Cl)cc(Cl)c2)(C(F)(F)F)C3)ncn1)C1CC1 (stereo not shown) [Compound 202],,≥ 80,≥ 80
O=C(Nc1cccc(-c2ccc3c(c2)CC(c2cc(Cl)cc(Cl)c2)(C(F)(F)F)O3)c1)C1CCOCC1 (stereo not shown) [Compound 72],at least 80%,,≥ 80
O=C(Nc1cccc(-c2ccc3c(c2)CC(c2cc(Cl)cc(Cl)c2)(C(F)(F)F)O3)c1)c1cccs1 (stereo not shown) [Compound 71],at least 80%,,≥ 80
O=C(Nc1cccc(-c2ccc3c(c2)CC(c2cccc(C(F)(F)F)c2)(C(F)(F)F)O3)c1)c1c[nH]cn1 (stereo not shown) [Compound 29],,≥ 80,≥ 80
O=C(Nc1ccnc(-c2cc3c(cc2Cl)OC(c2cc(Cl)cc(Cl)c2)(C(F)(F)F)C3)c1)C1CC1 (stereo not shown) [Compound 40],,≥ 80,≥ 80
CC#CC(=O)Nc1cccc(-c2ccc3c(c2)CC(c2cccc(C(F)(F)F)c2)(C(F)(F)F)O3)c1 (stereo not shown) [Compound 30],,≥ 80,≥ 80
O=C(Nc1cccc(-c2ccc3c(c2)CC(c2cc(Cl)cc(Cl)c2)(C(F)(F)F)O3)c1)C(F)c1ccccc1 (mixture of isomers) [Compound 16],,≥ 80,
O=C(Nc1ccc(Cl)c(-c2ccc3c(c2)CC(c2cc(Cl)cc(Cl)c2)(C(F)(F)F)O3)c1)C1CC1 (racemic) [Compound 2],,≥ 80,≥ 80
O=C(Nc1cc(-c2cc3c(cc2Cl)OC(c2cc(Cl)cc(Cl)c2)(C(F)(F)F)C3)ccn1)C1CC1 (stereo not shown) [Compound 41],,≥ 80,≥ 80
COc1ncc(-c2ccc3c(c2)CC(c2cc(Cl)cc(Cl)c2)(C(F)(F)F)O3)cc1NC(=O)C1CC1 (stereo not shown) [Compound 238],,≥ 80,
CC(C)CCC(=O)Nc1cccc(-c2ccc3c(c2)CC(c2cccc(C(F)(F)F)c2)(C(F)(F)F)O3)c1 (stereo not shown) [Compound 22],,≥ 80,
O=C(Nc1cncc(-c2ccc3c(c2)CC(c2cc(Cl)cc(Cl)c2)(C(F)(F)F)O3)c1)C1CC1 (racemic) [Compound 6],,≥ 80,≥ 80
O=C(Nc1cccc(-c2ccc3c(c2)CC(c2cc(Cl)cc(Cl)c2)(C(F)(F)F)O3)c1)c1ccncc1 (racemic) [Compound 20],,≥ 80,≥ 80
CCC(=O)Nc1cc(-c2cc3c(cc2C)OC(c2cc(Cl)cc(Cl)c2)(C(F)(F)F)C3)ncn1 (stereo not shown) [Compound 35],,,≥ 80
O=C(Nc1cccc(-c2ccc3c(c2)CC(c2cccc(C(F)(F)F)c2)(C(F)(F)F)O3)c1)C(F)c1ccccc1 (stereo not shown) [Compound 26],,≥ 80,
Cc1cc2c(cc1-c1cc(NC(=O)C3CC3)ncn1)CC(c1cc(Cl)cc(Cl)c1)(C(F)(F)F)O2 (stereo not shown) [Compound 36],,≥ 80,≥ 80
Cc1ccccc1C(=O)Nc1cccc(-c2ccc3c(c2)CC(c2cccc(C(F)(F)F)c2)(C(F)(F)F)O3)c1 (stereo not shown) [Compound 109],at least 80%,≥ 80,
O=C(CC1CCCC1)Nc1cccc(-c2ccc3c(c2)CC(c2cccc(C(F)(F)F)c2)(C(F)(F)F)O3)c1 (stereo not shown) [Compound 23],,≥ 80,
C#CC(=O)Nc1cccc(-c2ccc3c(c2)CC(c2cccc(C(F)(F)F)c2)(C(F)(F)F)O3)c1 (stereo not shown) [Compound 27],,≥ 80,≥ 80
